Results are given in words; binding and its absence hold for the method and conditions named. In cells and extracts the contact can be indirect. A result given as binding can be weak or reduced; the word gives no strength.
Target: STAT3-Flag (UniProt P40763)
Test: co-IP; HEK293T cells transfected with myc- and Flag-tagged plasmids; lysate immunoprecipitated with anti-myc or anti-Flag antibody, protein A/G agarose, western blot

By UniProt entry, the sequences of proteins in these tests, tags left out. Where a name states a change or a piece, a line headed by the entry shows the natural chain unless it says otherwise.
UniProt P40763: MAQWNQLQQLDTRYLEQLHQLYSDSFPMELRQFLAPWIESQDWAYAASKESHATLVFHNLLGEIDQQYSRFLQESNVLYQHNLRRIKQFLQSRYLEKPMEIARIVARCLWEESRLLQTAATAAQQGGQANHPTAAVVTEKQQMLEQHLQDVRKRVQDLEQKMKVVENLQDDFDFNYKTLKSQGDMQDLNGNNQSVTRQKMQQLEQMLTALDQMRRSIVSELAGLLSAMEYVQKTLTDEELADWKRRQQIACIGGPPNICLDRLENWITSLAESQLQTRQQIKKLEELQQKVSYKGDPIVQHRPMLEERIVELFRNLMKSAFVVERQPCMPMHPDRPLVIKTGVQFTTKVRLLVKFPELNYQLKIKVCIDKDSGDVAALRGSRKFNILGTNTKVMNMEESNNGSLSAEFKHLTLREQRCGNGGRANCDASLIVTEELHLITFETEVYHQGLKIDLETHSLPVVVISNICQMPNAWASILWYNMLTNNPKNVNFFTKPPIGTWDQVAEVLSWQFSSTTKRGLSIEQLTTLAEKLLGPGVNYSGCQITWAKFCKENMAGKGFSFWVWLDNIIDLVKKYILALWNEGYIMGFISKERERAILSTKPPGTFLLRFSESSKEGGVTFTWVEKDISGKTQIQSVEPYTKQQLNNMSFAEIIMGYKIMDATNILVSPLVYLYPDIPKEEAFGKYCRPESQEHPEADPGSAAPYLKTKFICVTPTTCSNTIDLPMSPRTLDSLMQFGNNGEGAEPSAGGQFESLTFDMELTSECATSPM
UniProt Q86WI3: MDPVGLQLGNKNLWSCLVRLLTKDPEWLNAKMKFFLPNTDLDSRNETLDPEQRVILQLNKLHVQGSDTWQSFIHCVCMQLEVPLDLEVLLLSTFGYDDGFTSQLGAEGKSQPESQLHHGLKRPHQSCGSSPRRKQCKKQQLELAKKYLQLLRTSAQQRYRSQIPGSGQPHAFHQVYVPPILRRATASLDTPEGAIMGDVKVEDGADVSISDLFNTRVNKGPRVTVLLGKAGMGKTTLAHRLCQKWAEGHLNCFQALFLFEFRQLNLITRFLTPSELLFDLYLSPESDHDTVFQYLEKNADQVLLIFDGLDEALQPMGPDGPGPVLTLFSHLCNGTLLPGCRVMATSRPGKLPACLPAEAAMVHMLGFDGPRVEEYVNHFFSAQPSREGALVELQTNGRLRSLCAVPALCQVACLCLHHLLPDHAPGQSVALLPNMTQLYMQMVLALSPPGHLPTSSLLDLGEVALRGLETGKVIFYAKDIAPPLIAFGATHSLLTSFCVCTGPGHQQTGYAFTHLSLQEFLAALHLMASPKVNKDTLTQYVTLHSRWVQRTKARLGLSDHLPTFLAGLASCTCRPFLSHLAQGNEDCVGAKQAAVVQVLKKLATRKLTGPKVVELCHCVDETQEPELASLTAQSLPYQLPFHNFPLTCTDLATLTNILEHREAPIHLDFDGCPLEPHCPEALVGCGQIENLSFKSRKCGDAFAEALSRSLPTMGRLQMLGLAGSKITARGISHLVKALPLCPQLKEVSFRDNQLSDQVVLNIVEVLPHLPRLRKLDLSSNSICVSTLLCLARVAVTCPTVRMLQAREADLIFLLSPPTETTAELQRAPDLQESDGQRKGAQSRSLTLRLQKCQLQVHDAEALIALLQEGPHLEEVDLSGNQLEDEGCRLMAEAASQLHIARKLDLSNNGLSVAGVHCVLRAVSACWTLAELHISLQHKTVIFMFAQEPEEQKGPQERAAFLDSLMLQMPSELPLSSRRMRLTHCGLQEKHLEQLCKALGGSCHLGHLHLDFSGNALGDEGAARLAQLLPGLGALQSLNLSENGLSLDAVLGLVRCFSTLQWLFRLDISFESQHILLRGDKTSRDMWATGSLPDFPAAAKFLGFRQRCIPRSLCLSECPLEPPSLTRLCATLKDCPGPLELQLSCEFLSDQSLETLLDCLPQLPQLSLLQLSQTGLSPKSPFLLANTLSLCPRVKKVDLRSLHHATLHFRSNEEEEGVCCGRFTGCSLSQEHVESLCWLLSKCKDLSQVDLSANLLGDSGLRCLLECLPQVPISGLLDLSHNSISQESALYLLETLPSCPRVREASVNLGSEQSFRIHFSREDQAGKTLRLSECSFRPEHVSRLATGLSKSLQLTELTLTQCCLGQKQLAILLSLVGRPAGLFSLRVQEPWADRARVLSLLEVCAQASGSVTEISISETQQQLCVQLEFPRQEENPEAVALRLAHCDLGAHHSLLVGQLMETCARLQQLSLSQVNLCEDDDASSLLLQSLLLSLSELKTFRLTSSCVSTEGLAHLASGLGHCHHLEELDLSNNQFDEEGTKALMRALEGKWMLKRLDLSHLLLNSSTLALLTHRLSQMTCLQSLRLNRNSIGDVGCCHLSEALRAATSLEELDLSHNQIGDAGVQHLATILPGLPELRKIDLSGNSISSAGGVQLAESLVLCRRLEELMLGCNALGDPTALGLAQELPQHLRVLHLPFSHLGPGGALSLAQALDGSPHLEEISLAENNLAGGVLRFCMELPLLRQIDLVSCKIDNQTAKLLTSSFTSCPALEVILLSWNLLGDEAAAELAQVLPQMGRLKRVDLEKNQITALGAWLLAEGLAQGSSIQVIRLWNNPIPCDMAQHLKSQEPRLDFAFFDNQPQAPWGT

Substance: myc-NLRC5 ΔDD (135-1855 aa) (from UniProt Q86WI3) (domain or fragment)
- binding: binds
